# Assay results taken from the supplement of paper PMC3334620.
# In all, about 33,000 sequences were measured (“E-score (-0.5 to 0.5)”: median about -0.016, highest 2% from about 0.3 on). Some of the results follow.
# Target: T1, Yer184c (UniProt P39961)
# T1 sequence: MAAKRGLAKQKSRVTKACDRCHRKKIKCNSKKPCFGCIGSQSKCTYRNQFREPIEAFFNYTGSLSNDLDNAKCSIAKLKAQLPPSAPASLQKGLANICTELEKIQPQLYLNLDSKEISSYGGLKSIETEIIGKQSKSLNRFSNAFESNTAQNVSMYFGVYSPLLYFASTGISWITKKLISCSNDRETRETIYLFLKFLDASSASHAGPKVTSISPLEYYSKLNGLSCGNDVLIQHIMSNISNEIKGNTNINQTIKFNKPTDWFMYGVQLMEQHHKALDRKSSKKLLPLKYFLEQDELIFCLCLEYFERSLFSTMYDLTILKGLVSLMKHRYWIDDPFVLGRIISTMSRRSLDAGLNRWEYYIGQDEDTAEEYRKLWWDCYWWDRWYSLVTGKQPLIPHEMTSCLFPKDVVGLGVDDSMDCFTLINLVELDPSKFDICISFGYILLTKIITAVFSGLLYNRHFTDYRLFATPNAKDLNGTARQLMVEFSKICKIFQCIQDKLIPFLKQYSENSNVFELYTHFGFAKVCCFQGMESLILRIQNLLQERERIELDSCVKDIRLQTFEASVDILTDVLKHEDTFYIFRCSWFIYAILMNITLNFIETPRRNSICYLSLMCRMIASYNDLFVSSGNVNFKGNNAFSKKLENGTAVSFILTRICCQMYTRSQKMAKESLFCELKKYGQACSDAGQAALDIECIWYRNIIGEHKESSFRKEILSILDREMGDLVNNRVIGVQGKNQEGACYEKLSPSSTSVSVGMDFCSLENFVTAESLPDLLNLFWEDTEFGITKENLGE
# Assay: PBM E-score (8-mer binding enrichment) (E-score (-0.5 to 0.5)); higher = stronger / more preferred TF binding
# Settings: protein concentration: 100 nM; construct: GST-full length
# Experimental: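 Universal 'all 10-mer' protein binding microarrays (Agilent AMADID 015681) probed with GST-tagged S. cerevisiae TFs (full-length or DBD) made by in vitro transcription/translation (PURExpress), about 100-200 nM. Bound TF was detected with fluorescent anti-GST. Each ungapped 8-mer (which stands for itself and its reverse complement) is scored by the PBM enrichment score (E-score), a modified Wilcoxon-Mann-Whitney statistic from -0.5 to +0.5, computed with the Universal PBM Analysis Suite. Scale: above 0.35 generally sequence-specific binding.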
row,Sequence,PBM E-score
1,AAGTCAAA,0.117
2,TGAGGACA,-0.105
3,AAGCACGG,-0.0621
4,GCTCGCAC,0.0955
5,ACAGGCTA,-0.164
6,ACCGAGAT,0.202
7,TGATTAAA,0.252
8,ATTTTAAG,0.0152
9,AAGGGCGT,-0.169
10,AGGTAACG,0.00421
11,CATTTTCG,0.094
12,CACTCTCG,-0.126
13,CGCCCAAG,-0.249
14,TCGAATAA,-0.00128
15,CCAGACAC,-0.135
16,CTCGGTCC,0.181
17,CGGTTACA,0.242
18,CATTACCC,-0.111
19,CGTGATAG,-0.0395
20,CATCGCCC,-0.167
21,CTAAACTA,-0.0564
22,GCCCTGCA,-0.195
23,CGGCTGTA,0.147
24,CTCCTGAA,0.0396
25,AAGATACC,0.187

row,Sequence,PBM E-score
1,AACCGAAG,0.259
2,AGACGTAA,0.0391
3,GGATAGAA,0.197
4,CCTGCGAG,0.00158
5,GCTAGACA,0.113
6,AAGGGCGA,-0.211
7,AGGAGCTG,-0.235
8,TCCAGGGA,-0.242
9,ACAGGGCG,-0.0949
10,CACACTCC,-0.282
11,ATCCCGTG,0.155
12,AACATATC,0.0913
13,CGGGAGAC,0.0664
14,GCTCGGGA,0.156
15,GGCATGGA,0.0649
16,ATCCATTG,0.0741
17,AGCGCCAG,0.114
18,CTGAATGC,-0.13
19,ACTCAGGC,-0.0239
20,CCTGTCAA,-0.11
21,AGCACCCT,-0.24
22,GTTATGTA,-0.00775
23,CAGGATAG,0.0949
24,AGGTGCCC,-0.138
25,ATGAACAT,0.145

row,Sequence,PBM E-score
1,CAAACTAG,-0.0624
2,AGAAAGAG,-0.145
3,ATCTTGGC,-0.141
4,GAACAGTC,-0.0884
5,CCCGTTTC,0.00236
6,ATCTTTCC,0.0322
7,ATGTGTGA,-0.158
8,GATACGTA,0.0184
9,AAGTAATC,0.0867
10,CCATGCCA,-0.184
11,AGTGAAAG,0.115
12,ATTCTCGC,-0.192
13,CAAGGTCA,-0.186
14,CTTTTCTA,-0.172
15,AGGTGGAT,-0.105
16,ACGATGAT,-0.14
17,ATCAGTTA,0.215
18,TAGACTGA,-0.139
19,CTTCTAAA,0.118
20,CGATCCAG,-0.177
21,GTTCGGCA,0.368
22,ATAAAAAA,0.289
23,CGTGGCGA,-0.0176
24,TCCGCACA,0.0986
25,GGGTACTA,-0.0391

# Single entries from above:
# Under PBM E-score, CCTGTCAA has -0.11
# Under PBM E-score, CGTGGCGA has -0.0176
# Under PBM E-score, CGGTTACA has 0.242
# Under PBM E-score, AGCGCCAG has 0.114
# Under PBM E-score, ATCAGTTA has 0.215
# Under PBM E-score, AACATATC has 0.0913
# Under PBM E-score, GCTAGACA has 0.113

# The list continues:

row,Sequence,PBM E-score
1,AACGTTAG,0.0423
2,CACTCCTA,0.0638
3,CTAAATTC,-0.0259
4,CGGTTCAC,-0.0988
5,GACTAAGA,0.13
6,AAGCGGAT,0.0624
7,AAGACGTA,-0.024
8,ATGAGGTA,-0.0246
9,ACGGCGTA,0.0111
10,GTGTTCTA,0.015
11,ATTTGAGA,-0.0548
12,AAAAGTAT,0.135
13,AAGGAACC,0.22
14,AATCAACC,-0.163
15,AGAAGTGC,-0.133
16,AGCAAGCT,-0.246
17,CTAAGAGC,-0.2
18,AACCTCGA,0.0188
19,ACTCACCA,-0.176
20,ACGCTGAG,-0.207
21,AAAATACC,0.284
22,AAGACCCC,-0.192
23,CGAATCAC,0.0273
24,TAATGGAA,0.0893
25,AACCGCGA,0.225

row,Sequence,PBM E-score
1,AGGGCGAC,-0.183
2,GGGATGAC,-0.181
3,CGTCATAG,-0.0696
4,GAACATAA,0.0766
5,CCAGCTGG,-0.0667
6,TCACCGCA,-0.0803
7,AGGCCCAC,-0.399
8,AAGCCGAC,0.13
9,AACTTGGA,-0.0966
10,CCACCTCC,-0.224
11,ACTTCCGA,0.285
12,CGTTCAGC,0.0565
13,ACCGTCAA,0.109
14,GAATACGC,0.0179
15,AGTGGCGA,-0.0299
16,GCAACATA,-0.174
17,CGGAAGCC,0.211
18,GTGTCTGA,-0.0506
19,GCGAAGAA,0.145
20,GTGTCCTA,0.0761
21,ATTCCACG,-0.0835
22,TGACACCA,-0.238
23,GCCTAAAC,-0.00658
24,GGCGGCAA,0.129
25,ATGGCCGA,0.192

row,Sequence,PBM E-score
1,TCGGGTAA,0.0925
2,CGGCCTGC,0.0731
3,AGCGCGTG,-0.13
4,GCGGAGAC,0.117
5,AGTAGTGC,-0.113
6,AAAAACCA,0.221
7,GGAAATCC,0.0674
8,GACGACGA,-0.0308
9,GCGATAAC,0.00351
10,CATGTGAG,-0.289
11,AGCCCGCT,-0.309
12,ATACGTCG,-0.0234
13,CGACCATA,-0.0566
14,TACAAATA,0.154
15,AAAGACAT,-0.259
16,CATTTGTA,0.177
17,CGGACCAC,0.244
18,AGGGGCAT,-0.358
19,AAAGTTAC,0.12
20,GGTATTAA,0.122
21,AGACTGAG,0.0116
22,CGCCTGCA,-0.185
23,ACGGACTG,-0.0943
24,CGAACTAA,0.164
25,CCCGCAAA,0.172

row,Sequence,PBM E-score
1,TACCTAGA,-0.108
2,AAACAAAA,0.028
3,ACAAAAAA,0.272
4,AACTAGGG,-0.303
5,CACTGTCA,-0.0308
6,CTCGCCTA,-0.00786
7,CAGGAAAA,0.105
8,CGCGAGAA,-0.0977
9,CCGTATGC,0.00142
10,GTCCATGA,-0.0857
11,GCGCGACC,-0.0593
12,CAGAAGGA,-0.224
13,AACCTAAG,-0.181
14,TTCTTAAA,-0.126
15,CAGTTAAA,-0.0293
16,AGCCCTCG,-0.11
17,AACAGATG,-0.128
18,CTTGGATA,0.00064
19,ACCAGTAG,0.0107
20,AAGGGTCT,-0.267
21,GTTTAGGA,-0.163
22,ATTGGCGA,-0.202
